These are yes or no findings as the source states them, for the method shown. In cells and extracts the contact can be indirect. Some entries that bind do so weakly or less than the wild type.
Experiments:
[1] = molecular target: tropomyosin receptor kinase A (TrkA), N-terminally NanoLuc- or SnapTag-tagged (human) (UniProt P04629); assay: FRET or BRET
[2] = molecular target: tropomyosin receptor kinase C (TrkC), N-terminally NanoLuc- or SnapTag-tagged (human) (UniProt Q16288); assay: FRET or BRET

Chains of the proteins cited; added tags and fusions are not shown. Lines headed by an entry give the natural chain unless they say otherwise; changes in a name come on top. A line that says so, or that is headed by a name, gives the form on record, which may keep a tag or linker.
tropomyosin receptor kinase A (TrkA), N-terminally NanoLuc- or SnapTag-tagged (P04629-2, form named): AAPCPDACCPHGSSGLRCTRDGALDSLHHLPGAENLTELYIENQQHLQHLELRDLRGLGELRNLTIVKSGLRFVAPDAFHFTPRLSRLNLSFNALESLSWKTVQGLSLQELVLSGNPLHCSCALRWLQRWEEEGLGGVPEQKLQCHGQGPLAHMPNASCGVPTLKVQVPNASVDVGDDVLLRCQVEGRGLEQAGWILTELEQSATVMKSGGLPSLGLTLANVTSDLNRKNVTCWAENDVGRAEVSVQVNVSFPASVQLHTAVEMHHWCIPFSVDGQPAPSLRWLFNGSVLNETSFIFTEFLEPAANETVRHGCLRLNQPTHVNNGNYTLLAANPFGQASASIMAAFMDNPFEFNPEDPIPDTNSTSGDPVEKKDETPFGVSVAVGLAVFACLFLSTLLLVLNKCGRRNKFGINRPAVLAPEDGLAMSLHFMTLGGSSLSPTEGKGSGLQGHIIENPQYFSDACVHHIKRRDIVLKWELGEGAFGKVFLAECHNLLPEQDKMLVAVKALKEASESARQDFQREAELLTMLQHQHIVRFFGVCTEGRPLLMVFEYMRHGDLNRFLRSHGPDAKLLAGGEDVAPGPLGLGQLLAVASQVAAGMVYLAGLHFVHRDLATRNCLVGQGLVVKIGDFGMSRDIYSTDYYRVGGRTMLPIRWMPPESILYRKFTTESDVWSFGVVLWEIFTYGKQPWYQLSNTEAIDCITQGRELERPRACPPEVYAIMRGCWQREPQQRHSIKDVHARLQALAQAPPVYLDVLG
tropomyosin receptor kinase C (TrkC), N-terminally NanoLuc- or SnapTag-tagged (Q16288-3, form named): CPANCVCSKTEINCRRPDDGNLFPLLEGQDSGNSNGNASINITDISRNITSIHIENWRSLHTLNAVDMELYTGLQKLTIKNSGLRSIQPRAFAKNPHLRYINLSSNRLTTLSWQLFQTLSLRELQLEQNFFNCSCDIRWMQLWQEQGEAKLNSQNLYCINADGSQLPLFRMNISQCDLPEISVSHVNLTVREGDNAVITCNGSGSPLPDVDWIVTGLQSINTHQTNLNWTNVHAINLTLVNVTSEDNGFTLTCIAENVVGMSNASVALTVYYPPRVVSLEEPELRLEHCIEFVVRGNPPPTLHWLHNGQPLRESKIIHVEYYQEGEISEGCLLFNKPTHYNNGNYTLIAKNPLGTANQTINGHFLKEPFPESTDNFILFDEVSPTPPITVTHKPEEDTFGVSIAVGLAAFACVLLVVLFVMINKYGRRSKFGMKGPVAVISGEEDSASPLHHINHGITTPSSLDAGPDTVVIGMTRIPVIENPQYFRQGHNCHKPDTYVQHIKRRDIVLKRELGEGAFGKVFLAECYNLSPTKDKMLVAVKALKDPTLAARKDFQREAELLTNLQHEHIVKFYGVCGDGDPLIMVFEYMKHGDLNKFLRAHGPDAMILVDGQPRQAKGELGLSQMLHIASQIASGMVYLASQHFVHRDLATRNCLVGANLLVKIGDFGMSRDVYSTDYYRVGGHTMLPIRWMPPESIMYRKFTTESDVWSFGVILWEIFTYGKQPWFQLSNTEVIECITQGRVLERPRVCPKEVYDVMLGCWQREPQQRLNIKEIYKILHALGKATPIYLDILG

Substance | binding [1] | binding [2]
tropomyosin receptor kinase A (TrkA), N-terminally NanoLuc- or SnapTag-tagged (from UniProt P04629-2 33-790) | binds | 
tropomyosin receptor kinase C (TrkC), N-terminally NanoLuc- or SnapTag-tagged (from UniProt Q16288-3 32-825) |  | binds
